In PubChem BioAssay AID1347075 (National Center for Advancing Translational Sciences (NCATS), 2019):
Among all 400,000 compounds or so, about 5,500 (1.4%) were called active. Inconclusive means that the source gave no clear call. Such entries were picked first, then a sample of the others. Calls follow the shape of the dose curve; as a rule, active = well fitted cell-killing curve with a large enough effect; inconclusive = small, poorly fitted or top-dose-only effect, or effect the other way; inactive = flat fitted curve, though single readings scatter. Where the call is inconclusive, the potency comes from a doubtful curve fit.
% is scaled to controls: 0 for no effect and ±100 for the full control effect; potency is read from the fitted curve at half-maximal effect.

Test: qHTS assay for MDR1-selective chemotherapeutics: Primary screen using the parental adenocarcinoma cell KB-3-1; also: nearly all actives have a fitted effect of over 60% in size
Details: KB-3-1 viability, CellTiter-Glo ATP luminescence, 72 h; activity change, negative = cytotoxic: at 46.1 µM (top of the series)
In short: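 Cytotoxicity in the drug-sensitive parental line KB-3-1 was scored as loss of CellTiter-Glo luminescence following 72 h incubation with compound. Values come from curve fitting of normalized concentration-response data.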
For `Cc1ccc(-c2nnn(CC(=O)N(CC3CCCO3)C(C(=O)NC3CCCC3)c3ccc(O)cc3)n2)o1` (stereo not given), the Potency was inconclusive: 1.46 µM [rising, full curve].
For `CCCCNc1oc(-c2cccs2)nc1S(=O)(=O)c1ccccc1`, the Potency was inconclusive: 14.6 µM [cytotoxic, single point].
In the case of `O=[N+]([O-])c1cccc(NC(=S)Nc2nc(-c3ccccc3Cl)cs2)c1`, the Potency is reported as inconclusive: 20.6 µM [cytotoxic, partial curve].
In the case of `CCc1noc(C)c1C(=O)N1CCN(c2cccc(C)c2C)CC1`, the Potency is reported as inconclusive: 29.1 µM [cytotoxic, single point].
For `COc1ccc(S(=O)(=O)Nc2nc3ccccc3nc2Nc2cccc(C(=O)O)c2)cc1`, the Potency was “inactive”.
For `COc1cccc(NC(=O)CSC2=C(C#N)C(c3ccco3)C3=C(CCCC3=O)N2)c1` (stereo not given), the Potency was inconclusive: 29.1 µM [cytotoxic, single point].
With `COc1ccc(C)cc1N(CC(=O)NCCSCc1ccco1)S(=O)(=O)c1ccc(C)cc1` the Potency was inconclusive: 5.8 µM [cytotoxic, full curve].
For `NC(Cc1ccccc1)c1csc(NC(=O)c2cccc(OC(F)(F)F)c2)n1` (stereo not given), the Potency was inconclusive: 29.1 µM [cytotoxic, single point].
For `Cc1ccc(S(=O)(=O)N2CCOC2CNC(=O)C(=O)NCc2ccc(Cl)cc2)cc1` (stereo not given), the activity change, negative = cytotoxic was inconclusive: -74.5%.
In the case of `CCOC(=O)c1cc(C#N)c(N2CCN(C(=O)c3cccc(C(F)(F)F)c3)CC2)nc1C(F)(F)F`, the Potency is reported as inconclusive: 16.4 µM [cytotoxic, partial curve, poor fit].
With `CC(C)COc1ccc(C/C(N)=N/n2cnnc2)cc1` the Potency was inconclusive: 7.31 µM [cytotoxic, partial curve].
With `O=C(O)c1ccn(COc2ccc(Br)cc2)n1` the Potency was inconclusive: 25.9 µM [rising, single point].
With `CC[C@@H](C)[C@H](CN[C@H](CNC)C(C)C)NC[C@@H](C)c1ccc(CC(C)C)cc1` the Potency was inconclusive: 16.4 µM [cytotoxic, single point].
In the case of `CC(=O)Nc1ccc(S(=O)(=O)NCCC(=O)Nc2ncccc2C)cc1`, the Potency is reported as inconclusive: 29.1 µM [rising, single point].
For `CC(Sc1nnc(C(C)Oc2ccccc2F)o1)C(=O)NCc1ccc2c(c1)OCO2` (stereo not given), the activity change, negative = cytotoxic was inconclusive: 30.3%.
In the case of `CC[C@H]1C(Nc2ccccc2)C[C@@H]2CCN3C(=O)CC[C@H]1[C@H]23` (stereo not given in full), the Potency is reported as “inactive”.
For `COc1ccccc1/C=C/c1nc(S(=O)(=O)c2ccccc2)c(NCCN(C)C)o1`, the Potency was inconclusive: 16.4 µM [rising, single point].
For `Cc1coc2c(O)cc3c(c12)OC1(N2CCCCC2)C(=O)NCCCC31` (stereo not given), the Potency was inconclusive: 32.6 µM [cytotoxic, single point].
With `CN(c1ccccc1)S(=O)(=O)c1cccc(NC(=O)CSc2ncn[nH]2)c1` the Potency was inconclusive: 18.4 µM [cytotoxic, partial curve, poor fit].
With `COC(=O)c1[nH]c2ccc(Br)cc2c1NC(=O)CN1CCCc2ccccc21` the Potency was “inactive”.
For `Nc1nc2c(ncn2-c2ccccc2)c(=O)[nH]1`, the Potency was “inactive”.
For `COc1cc(Cl)c(C)cc1NC(=O)CN1C(=O)C2CC=CCC2C1=O` (stereo not given), the Potency was “inactive”.
With `CC(C)CCC[C@](C)(O)c1ccc(C(=O)O)cc1O` the Potency was “inactive”.
For `O=C(Nc1ccncc1)c1ccc(NS(=O)(=O)c2cccc(F)c2)cc1`, the Potency was inconclusive: 20.6 µM [cytotoxic, single point].
With `COc1ccc(CCNC(=O)c2cc(C)nc3c2c(C)nn3-c2ccc(C)cc2)cc1OC` the Potency was inconclusive: 0.82 µM [cytotoxic, full curve].
With `COc1cc(OC)c(N(C)S(=O)(=O)c2cccc(C(=O)OCC(=O)N3CCOCC3)c2)cc1Cl` the Potency was “inactive”.
For `COc1cc2c(cc1NC(=O)CSc1cccc[n+]1[O-])oc1ccccc12`, the Potency was inconclusive: 18.4 µM [rising, single point].
For `O=c1[nH]c2ccccc2c2nc3ccccn3c12`, the Potency was inconclusive: 13 µM [cytotoxic, partial curve].
For `CCCC[C@H]1COCCS(=O)(=O)N1Cc1ccc(Br)cc1`, the Potency was inconclusive: 20.6 µM [cytotoxic, single point].
With `CCOc1ccccc1CN1CCc2nc(N3CCN(c4ccccc4F)CC3)ncc2C1` the Potency was inconclusive: 20.6 µM [cytotoxic, single point].
In the case of `COc1ccc(Cl)cc1NC(=O)CCS(=O)(=O)c1ccc(C)cc1`, the Potency is reported as “inactive”.
For `CC(=O)c1c(C)oc2c1C(=O)c1ccccc1C2=O`, the Potency was inconclusive: 20.6 µM [cytotoxic, single point].
With `COc1ccc(N2CCN(S(=O)(=O)CCNC(=O)C3CC(=O)N(c4ccccc4)C3)CC2)cc1` (stereo not given) the activity change, negative = cytotoxic was inconclusive: -5.78%.
In the case of `O=C(CN1/C(=C(/O)c2ccccc2)C(=O)c2ccccc2S1(=O)=O)c1ccccc1`, the Potency is reported as inconclusive: 16.4 µM [cytotoxic, single point].
In the case of `Cc1cc(Cl)ccc1OCC(=O)NNC(=O)c1cnccn1`, the Potency is reported as “inactive”.
With `CCc1nc(SCCO)c2oc3ccccc3c2n1` the Potency was inconclusive: 29.1 µM [cytotoxic, single point].
With `COc1cccc2cc(C(=O)Nc3ccccc3C)/c(=N/NS(=O)(=O)c3ccccc3)oc12` the Potency was inconclusive: 29.1 µM [rising, single point].
In the case of `CC1=CC(C)(C)[N+](C)(C)c2ccc(C)cc21`, the Potency is reported as inconclusive: 32.6 µM [cytotoxic, single point].
For `COC(=O)c1ccc(-c2csc(NC(=O)c3c(C)noc3C)n2)cc1`, the Potency was “inactive”.
With `CCOc1ccc(NC(=O)COC(=O)c2ccc3c(c2)OCO3)cc1` the Potency was “inactive”.
In the case of `O=C(/C=C/c1ccc2ccccc2n1)c1cc(Cl)ccc1O`, the Potency is reported as “inactive”.
For `COC(=O)c1c(NC(=O)c2nc(SCc3cccc(C)c3)ncc2Cl)sc2c1CCCC2`, the Potency was “inactive”.
In the case of `CCN(CC)c1ccc(Nc2nc(N3CCOCC3)c3ccccc3n2)cc1`, the Potency is reported as active: 8.2 µM.
For `CCC(=O)N1CCN(c2ccccc2NC(=O)COc2cc(C)ccc2C(C)C)CC1`, the Potency was inconclusive: 20.6 µM [cytotoxic, partial curve].
In the case of `Cc1c(CCC(C)C)c(=O)n2c([nH]c3ccccc32)c1C#N`, the Potency is reported as inconclusive: 20.6 µM [cytotoxic, single point].
